Results as given in patent US20250339409A1, “USES OF PAN BET INHIBITORS” (VYNE THERAPEUTICS INC., priority 2021, published 2025).
At least one compound was matched to its structure with a doubt left.

Tests used:
[1] = test system: CXCL10, IL17α, IL22, IL36γ, CCL20, SerpinB4 gene expression in Th17 stimulated human skin; assay: Th17 stimulated human skin explants, RT-qPCR of biomarkers; format: cell-based; details: 10 μM, calculated to Th17 stimulated control, three skin donors
From the text: Human skin biopsy tissue was stimulated to induce a Th17 immuno-phenotype using a method derived from Feghali-Bostwick et al. Induction of a Th17 phenotype in human skin—a mimic of dermal inflammatory diseases, Methods and Protocols, 2, 45 (2019).
Freshly excised healthy human skin tissue from abdominoplasties is defatted, cleaned and sectioned into 7 mm biopsies. The biopsies are placed in Transwell® inserts with the epidermis apical and exposed to air and the dermis submerged in media in the basal chamber. The biopsies are pre-treated overnight at 37° C., 5% CO2 with different compounds and controls added to the media in the basal chamber. […]
After harvesting, the biopsies are cut in half, and one half is homogenized and used for RNA extraction by standard methods and inflammatory pathways is assessed by RT-qPCR. […] Statistical analysis is performed on data sets from all 3 donors combined and compares the percent inhibition of each biomarker by each treatment calculated to its respective vehicle.
qPCR values were calculated using the relative quantification approach outlined by Livak, et al (2001) (Section 9, Reference 2). […] Fold change was calculated as ratio of the power of the gene of interest divided by the average power of the untreated samples. […] Percent change was calculated as: Inhibition=(100−(avg % activity/stimulated)*100). […]

[2] = test system: anti collagen antibodies induced arthritis (ACAIA); assay: ACAIA mice: histopathology of hind paws (tarsus); format: in vivo, Balb/c mice; details: 1 mg/kg IA (Group 7L), 2/7 cases;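 also: Mid-sagittal H&E-stained sections of mouse tarsus taken at study end, lesion severity graded from 0 (normal) to 4 (severe)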

SMILES | % inhibition CCL20 [1] | histopathology findings, treated paws [2]
N#CC[C@H](C1CCCC1)n1cc(-c2ncnc3[nH]ccc23)cn1 [Ruxolitinib, reference compound] | an increase in CCL20 | –
C[C@@H]1C[C@H]2[C@@H]3CCC4=CC(=O)C=C[C@]4(C)[C@@]3(F)[C@@H](O)C[C@]2(C)[C@@]1(O)C(=O)CO [dexamethasone, Dexamethasone, reference compound] | – | severe lesions with destruction of cartilage and bone
